According to article PMC8997538:
Results are given in words; binding and its absence hold for the method and conditions named. Binding seen in cells or lysates may run through a third protein. Some entries that bind do so weakly or less than the wild type. Sequences can lack the tags named with a protein.

B1: mitochondrial antiviral signaling protein (MAVS) (protein, UniProt Q8VCF0 1-503)
chain: MTFAEDKTYKYIRDNHSKFCCVDVLEILPYLSCLTASDQDRLRASYRQIGNRDTLWGLFNNLQRRPGWVEVFIRALQICELPGLADQVTRVYQSYLPPGTSLRSLEPLQLPDFPAAVSGPSAFAPGHNIPDHGLRETPSCPKPVQDTQPPESPVENSEQLLQTNSGAVARMSGGSLIPSPNQQALSPQPSREHQEQEPELGGAHAANVASVPIATYGPVSPTVSFQPLPRTALRTNLLSGVTVSALSADTSLSSSSTGSAFAKGAGDQAKAATCFSTTLTNSVTTSSVPSPRLVPVKTMSSKLPLSSKSTAAMTSTVLTNTAPSKLPSNSVYAGTVPSRVPASVAKAPANTIPPERNSKQAKETPEGPATKVTTGGNQTGPNSSIRSLHSGPEMSKPGVLVSQLDEPFSACSVDLAISPSSSLVSEPNHGPEENEYSSFRIQVDESPSADLLGSPEPLATQQPQEEEEHCASSMPWAKWLGATSALLAVFLAVMLYRSRRLAQ
B2: MIC25 (protein, UniProt Q91VN4 1-273)
chain: MGSAESAEARRVSFEMDEEERVRVLQGIRLSESVVNRMKDCSQPSAGEQLVPGFGPSSSAPVPTVPLPAISVPTVPAPTTPVPTAPSSSVRGLPGGTCKGPLTDVKVPSAESGGGLQSSAVKEDLKKFQQEQLAVQDEMVRVAKKEKEAAEKHLKASLPKKKASLTHEQQQSARLARELEDREAELSRRDTFYKEQQGRIQEKNAELYKLSSQQFHEAASKAESTIKPRRVEPVCSGLQAQILRCYRDHLHEVLLCSDLVKAYQHCVSTARKG
B3: MIC19 (protein, UniProt Q9CRB9 1-227)
chain: MGGTASTRRVTFEADENENITVVKGIRLSENVIDRMKESSPSGSKSQRYSSVYGASVSDEDLKRRVAEELALEQAKKESEHQRRLKQARDLERERAAANEQLTRAVLRERISSEEERMKAKHLARQLEEKDRVMRKQDAFYKEQLARLEERSSEFYKVTTEEYQKAAEEVEAKFKRYEYHPVCADLQTKILQCYRQNTQQTLSCSALASQYMHCVNHAKQSMLEKGG
B4: SAMM50 (protein, UniProt Q8BGH2 1-469)
chain: MGTVHARSLEPLPSSGTDFGALGEEAEFVEVEPEAKQEILENKDVVVQHVHFDGLGRTKDDIIICEIGEVFKAKNLIEVMRRSHEAREKLLRLGIFRQVDVLIDTCHGEDALPNGLDVTFEVTELRRLTGSYNTMVGNNEGSMVLGLKLPNLLGRAEKVTFQFSYGTKETSYGLSFFKPQPGNFERNFSVNLYKVTGQFPWSSLRETDRGVSAEYSFPLWKTSHTVKWEGVWRELGCLSRTASFAVRKESGHSLKSSLSHAMVIDSRNSSILPRRGALFKVNQELAGYTGGDVSFIKEDFELQLNKPLALDSVFSTSLWGGMLVPIGDKPSSIADRFYLGGPTSVRGFSMHSIGPQSEGDYLGGEAYWAGGLHLYTPLPFRPGQGGFGELFRTHFFLNAGNLCNLNYGEGPKAHIRKLAECIRWSYGAGVVLRLGNIARLELNYCIPMGVQGGDRICDGVQFGAGIRFL

Tests used:
3×Myc-CARD19-WT (mouse) = molecular target: T1, 3×Myc-CARD19-WT (mouse) (UniProt Q9D1I2); assay: co-IP; lysates of macrophages stably expressing Myc-tagged constructs, precleared, 2 µg mouse anti-Myc (9E10) 16 to 20 h at 4 °C, Protein G Sepharose, three washes; 50 mM Tris-HCl pH 7.5, 150 mM NaCl, 1% Triton X-100; Western blot
T1 sequence: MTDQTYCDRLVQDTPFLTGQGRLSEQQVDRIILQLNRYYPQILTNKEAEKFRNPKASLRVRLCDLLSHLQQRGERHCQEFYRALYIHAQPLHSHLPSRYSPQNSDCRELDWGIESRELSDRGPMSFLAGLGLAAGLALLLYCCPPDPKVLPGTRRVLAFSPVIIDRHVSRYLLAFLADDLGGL

[1] = molecular target: T2, 3×Myc-CARD19-G73R (mouse) (UniProt Q9D1I2); assay: as above
T2 sequence: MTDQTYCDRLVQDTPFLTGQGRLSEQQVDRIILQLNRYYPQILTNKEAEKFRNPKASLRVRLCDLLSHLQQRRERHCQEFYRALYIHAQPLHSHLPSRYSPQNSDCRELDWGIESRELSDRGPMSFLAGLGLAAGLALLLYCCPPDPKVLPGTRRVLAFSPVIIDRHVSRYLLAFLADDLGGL

Binder	binding (3×Myc-CARD19-WT (mouse))	binding [1]
B1	no binding	
B2	binds	
B3	binds	binds
B4	binds	binds
